In PubChem BioAssay AID1347076 (National Center for Advancing Translational Sciences (NCATS), 2019):
Hit rate of the full screen: of about 400,000 compounds, about 13,000 (3.2%) were called active. Inconclusive results, whose numbers are uncertain, are shown with a selection of clear calls. Calls come from the whole dose curve; as a rule, active = well fitted cell-killing curve with a large enough effect; inconclusive = small, poorly fitted or top-dose-only effect, or effect the other way; inactive = flat fitted curve, though single readings scatter. Where the call is inconclusive, the potency comes from a doubtful curve fit.

experiment: qHTS assay for MDR1-selective chemotherapeutics: Primary screen using the drug-selected MDR subline cells KB-V1; conditions: KB-V1 MDR cells viability, CellTiter-Glo, 72 h; series mostly up to 46.1 µM; note: nearly all actives have a fitted effect of over 60% in size
Outline: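 KB-V1 MDR subline cells in DMEM (phenol-red free, 10% FBS) exposed to compounds in qHTS concentration series for 72 h at 37 degrees C. Viability read by CellTiter-Glo luminescence; concentration-effect curves fitted after normalization and correction.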
Potency is the fitted concentration of half-maximal effect.

| Structure (SMILES) | Potency |
| --- | --- |
| CCn1c(=O)n(CC(=O)N2CC(C)CC(C)C2)c(=O)c2ccccc21 (configuration not stated) | inconclusive: 0.58 µM [cytotoxic, partial curve, poor fit] |
| CC(=O)N1CCN(S(=O)(=O)c2cccc(C(=O)OCC(=O)N(CCC#N)c3ccc(F)cc3)c2)CC1 | inactive |
| NC(=O)CCN1CCC(c2nc3ccccc3s2)CC1 | inconclusive: 1.03 µM [rising, full curve] |
| CCNC1=C(Cl)C(=O)c2ccccc2C1=O | inconclusive: 29.1 µM [cytotoxic, single point] |
| CCCCn1c(N)c(N(CC(C)C)C(=O)C2CCN(S(=O)(=O)c3ccc(Cl)cc3)CC2)c(=O)[nH]c1=O | inactive |
| CC(C)OC(=O)C(C#N)c1nc2ccccc2nc1N1CCCC1 (configuration not stated) | inactive |
| Cc1cc(N2C(=O)C(O)=C(C(=O)c3cccs3)C2c2ccccc2)no1 (configuration not stated) | inconclusive: 32.6 µM [cytotoxic, partial curve, poor fit] |
| CCN1C(=O)[C@H]2[C@@H](c3ccc(-c4cccc(Cl)c4)cc3)N[C@@](C)(C(=O)OC)[C@H]2C1=O | inconclusive: 20.6 µM [cytotoxic, single point] |
| Cc1nnc2c(SC(C)C)nc3ccccc3n12 | inconclusive: 18.4 µM [cytotoxic, single point] |
| CC1CCCCC1NCC(=O)NCc1ccc(F)cc1 (configuration not stated) | inconclusive: 18.4 µM [cytotoxic, single point] |
| COc1ccc(NC(=O)c2cc(S(=O)(=O)N3CCCCC3)cn2C)cc1Cl | inactive |
| O=C(Nc1ccc(S(=O)(=O)N2CCCCC2c2cccnc2)cc1)c1ccc(F)cc1 (configuration not stated) | inactive |
| O=C(Nc1nc(-c2ccccn2)cs1)c1ccc(Br)s1 | active: 1.3 µM |
| CC(C)C[C@H]1CN([C@@H](CC(C)C)CN2CCC[C@@H]2CN2C(=O)C(=O)NC[C@@H]2Cc2ccccc2)C(=O)C(=O)N1CC1CCCCC1 | inconclusive: 29.1 µM [rising, single point] |
| O=c1oc(CCCO)cc2ccc(Br)cc12 | inconclusive: 29.1 µM [cytotoxic, single point] |
| C=CCNc1nc2ccccc2nc1NS(=O)(=O)c1ccc(Br)cc1 | inconclusive: 32.6 µM [cytotoxic, single point] |
| CN(C)c1ccc(-c2noc(C3CC(=O)N(c4ccc5c(c4)OCCO5)C3)n2)cc1 (configuration not stated) | inconclusive: 29.1 µM [cytotoxic, single point] |
| Cc1ccc(Cn2nc(C)c(NC(=O)CCCn3nc([N+](=O)[O-])c(Cl)c3C)c2C)cc1 | inconclusive: 8.2 µM [cytotoxic, partial curve] |
| O=C(Nc1ccc(Cl)cc1)c1cc2c(Cl)nc3ccccc3c2s1 | inconclusive: 1.64 µM [rising, full curve] |
| CCc1nnc2c3ccccc3nc(Nc3ccc(F)c(Cl)c3)n12 | inconclusive: 29.1 µM [rising, single point] |
| CCCC(CCC)C(=O)Nc1nnc2n1CCS2 | inconclusive: 0.291 µM [cytotoxic, full curve, poor fit] |

| Structure (SMILES) | Potency |
| --- | --- |
| CCn1cc(CN2CCC(C(=O)Nc3ccc(Oc4cccnc4)cc3)CC2)c(C)n1 | inactive |
| COc1cc(C(=O)OCCCN2CCCN(CCCOC(=O)c3cc(OC)c(OC)c(OC)c3)CC2)cc(OC)c1OC | inconclusive: 2.59 µM [cytotoxic, full curve] |
| CC(C(=O)N(C)Cc1cccc(F)c1)N1CCN(S(=O)(=O)c2ccc3c(c2)OCCCO3)CC1 (configuration not stated) | inconclusive: 8.2 µM [cytotoxic, partial curve] |
| Cc1ccc(C(=O)Nc2ccc(S(=O)(=O)N3CCCC3)cc2)o1 | inconclusive: 18.4 µM [cytotoxic, partial curve, poor fit] |
| COCCn1c(C)cc(C(=O)CSc2nncn2-c2ccccc2)c1C | active: 10.3 µM |
| Oc1c(Cl)cc(Cl)c2c1NCCC2 | inconclusive: 29.1 µM [cytotoxic, single point] |
| CCNC(=O)C1(C)CCN(C(=O)c2ccc(C(F)(F)F)cc2)C1 (configuration not stated) | inactive |
| CCOC(=O)c1nnn2c1nc(N(CC)CC)c1ccccc12 | inconclusive: 18.4 µM [cytotoxic, partial curve, poor fit] |
| O=C(CSc1n[nH]c(-c2ccccn2)n1)Nc1ccccc1 | inactive |
| COc1cccc(C(=O)Nc2ccc(C(=O)c3ccncc3)cc2)c1 | inconclusive: 16.4 µM [cytotoxic, partial curve, poor fit] |
| Cc1ccc(OC(=O)N(C)C[C@H]2OCc3cn(nn3)CCCC(=O)N([C@H](C)CO)C[C@@H]2C)cc1 | inconclusive: 18.4 µM [rising, single point] |
| COc1cc(/C=C/c2ccc(/C=C/c3cc(OC)c(OC)c(OC)c3)cc2)cc(OC)c1OC | inconclusive: 8.2 µM [cytotoxic, partial curve] |
| COc1ccc(CCNC(=O)[C@H](C)N2C(=O)N3CCc4c([nH]c5ccccc45)[C@@]3(C)C2=O)cc1OC | inconclusive: 29.1 µM [cytotoxic, single point] |
| O=C(NCC(c1ccco1)N1CCc2ccccc21)C(=O)Nc1ccc(F)cc1F (configuration not stated) | active: 4.11 µM |
| CC(=O)N1CCN(CC(=O)Nc2ccccc2Sc2ccccc2)CC1 | inconclusive: 29.1 µM [cytotoxic, single point] |
| C[C@@H]1CN([C@@H](C)CO)C(=O)CCCn2cc(nn2)CO[C@H]1CN(C)S(=O)(=O)c1ccc(-n2cccn2)cc1 | inactive |
| O=C(c1ccco1)N1CCN(c2nc(C(F)(F)F)nc3c2nnn3Cc2ccccc2)CC1 | active: 2.31 µM |
| CCc1ccc(C(=O)OCC(=O)NC2CCCC2)cc1 | inconclusive: 29.1 µM [rising, single point] |
| CC(OC(=O)c1ccc(OCC2CCCO2)cc1)C(=O)N(C)Cc1ccccc1 (configuration not stated) | inconclusive: 11.6 µM [cytotoxic, partial curve] |
| Cc1sc(NC(=O)C2CCCC2)c(C#N)c1C | inconclusive: 18.4 µM [cytotoxic, single point] |
| C=CCc1ccccc1OCCn1c(C2CC(=O)N(Cc3ccc(F)cc3)C2)nc2ccccc21 (configuration not stated) | inconclusive: 16.4 µM [cytotoxic, single point] |

For reference, part of the list above:

| Structure (SMILES) | Potency |
| --- | --- |
| Cc1nnc2c(SC(C)C)nc3ccccc3n12 | inconclusive: 18.4 µM [cytotoxic, single point] |
| CC1CCCCC1NCC(=O)NCc1ccc(F)cc1 (configuration not stated) | inconclusive: 18.4 µM [cytotoxic, single point] |
